Measurements reported in PubChem BioAssay AID652243 (Drosophila RNAi Screening Center, 2013).
The deposit covers about 24,000 reagents; shown is a random part of those that have a named target and a result. Of all reagents, 246 (1%) are marked active. 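Plates not normalised; calls are printed but the firefly/Renilla ratio behind them is not deposited; fold cut for lowering reported inconsistently.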 Raw values are not corrected between plates. Entries without a mark were called inactive. A plus sign joins genes that one reagent is predicted to hit. The record does not give: the amount of reagent.

Test: 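Fly genes required for human androgen receptor driven transcription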 (primary screen)
Cells: Drosophila S2R+ cells
Knock-down reagent: long dsRNA against Drosophila genes
Time to read-out: 72 h (48 h, then 24 h hormone)
Challenge: synthetic androgen R1881 at 10 nM for 24 h
Read-out: 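Per-well raw luminescence of the androgen-driven firefly reporter and of the Renilla control, two replicates each, without normalisation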
Reading the numbers: firefly reporter light: higher = more light from androgen-responsive reporter; Renilla control light: higher = more constitutive control signal (cell number, transfection)
Active means: 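Across duplicate plates, a knock-down whose log firefly/Renilla ratio shifted a set fold down or up from the GFP/LacZ control mean was a hit; the downward cut appears as both 1.5 and 3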
Meaning of the calls: active = hit: reporter lowered or raised; inactive = no hit

{"gene": "CG42496 + Ppcdc", "amplicon": "DRSC03886", "firefly reporter light, replicate 1": 1.06e5, "firefly reporter light, replicate 2": 1.69e5, "Renilla control light, replicate 1": 2.66e5, "Renilla control light, replicate 2": 2.09e5}
{"gene": "Fbxl4", "amplicon": "DRSC19805", "firefly reporter light, replicate 1": 96172, "firefly reporter light, replicate 2": 74774, "Renilla control light, replicate 1": 6.60e5, "Renilla control light, replicate 2": 6.26e5}
{"gene": "DENR", "amplicon": "DRSC20151", "firefly reporter light, replicate 1": 62584, "firefly reporter light, replicate 2": 82314, "Renilla control light, replicate 1": 5.08e5, "Renilla control light, replicate 2": 7.74e5}
{"gene": "CG31360", "amplicon": "DRSC13255", "firefly reporter light, replicate 1": 2.73e5, "firefly reporter light, replicate 2": 2.33e5, "Renilla control light, replicate 1": 5.41e5, "Renilla control light, replicate 2": 4.61e5}
{"gene": "CG5946", "amplicon": "DRSC10560", "firefly reporter light, replicate 1": 1.47e5, "firefly reporter light, replicate 2": 1.60e5, "Renilla control light, replicate 1": 1.49e6, "Renilla control light, replicate 2": 1.55e6}

Single entries from the entries so far:
CG5946 [DRSC10560], Renilla control light, replicate 2 → 1.55e6
Result of CG42496 + Ppcdc [DRSC03886] in “Renilla control light, replicate 2”: 2.09e5

Further results follow:
{"gene": "CG32548", "amplicon": "DRSC19627", "firefly reporter light, replicate 1": 4.31e5, "firefly reporter light, replicate 2": 3.76e5, "Renilla control light, replicate 1": 3.15e6, "Renilla control light, replicate 2": 3.08e6}
{"gene": "CG32548", "amplicon": "DRSC19982", "firefly reporter light, replicate 1": 65492, "firefly reporter light, replicate 2": 56930, "Renilla control light, replicate 1": 5.02e5, "Renilla control light, replicate 2": 5.56e5}
{"gene": "CG32548", "amplicon": "DRSC28857", "firefly reporter light, replicate 1": 4.73e5, "firefly reporter light, replicate 2": 4.53e5, "Renilla control light, replicate 1": 1.65e6, "Renilla control light, replicate 2": 1.44e6}
{"gene": "Ice1", "amplicon": "DRSC04191", "firefly reporter light, replicate 1": 2.98e5, "firefly reporter light, replicate 2": 1.17e5, "Renilla control light, replicate 1": 1.54e6, "Renilla control light, replicate 2": 9.22e5}
{"gene": "Ice1", "amplicon": "DRSC23585", "firefly reporter light, replicate 1": 7.87e5, "firefly reporter light, replicate 2": 8.09e5, "Renilla control light, replicate 1": 1.36e6, "Renilla control light, replicate 2": 1.66e6}
{"gene": "CG7298", "amplicon": "DRSC10802", "firefly reporter light, replicate 1": 28238, "firefly reporter light, replicate 2": 26707, "Renilla control light, replicate 1": 3.23e5, "Renilla control light, replicate 2": 3.06e5}
{"gene": "TyrRS-m", "amplicon": "DRSC04286", "firefly reporter light, replicate 1": 6.80e5, "firefly reporter light, replicate 2": 5.64e5, "Renilla control light, replicate 1": 1.24e6, "Renilla control light, replicate 2": 1.27e6}
{"gene": "Fs(2)Ket", "amplicon": "DRSC03328", "firefly reporter light, replicate 1": 1.41e5, "firefly reporter light, replicate 2": 2.27e5, "Renilla control light, replicate 1": 6.65e5, "Renilla control light, replicate 2": 7.97e5}
{"gene": "Fs(2)Ket", "amplicon": "DRSC23439", "firefly reporter light, replicate 1": 1.54e5, "firefly reporter light, replicate 2": 2.21e5, "Renilla control light, replicate 1": 2.90e5, "Renilla control light, replicate 2": 3.22e5}
